Data reported in the supplement of paper PMC6078165.
The reference is the same well before dosing, and untreated signal decays as well.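 Fibroblast labels name human fibroblasts: mostly primary ones from tissues such as uterus (C12385, HUF), lung (H6013), bone (Hs27A), adrenal (HADF) and skin (WS1), plus mammary HMF and breast cancer-associated Hs343T. The cancer cells are basal-like or mesenchymal-like triple-negative breast cancer lines. The paper calls a changed response a hit when it shifts by more than 3x the replicate standard deviation. The tissue of the other fibroblasts is not given here.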

Test system: MDAMB468
Assay: relative JC-1 red fluorescence (viability) vs pre-drug, coculture with fibroblast (fraction); higher = more viable cancer cells
Method: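 JC-1 labelled TNBC cells cocultured 1:1 (1,500 cells each) with CellTrace Violet stained primary or stromal fibroblasts in 384-well plates in FluoroBrite medium, treated with one of 42 anticancer drugs at 0.1, 1, 10 or 100 uM. JC-1 red fluorescence (mitochondrial integrity in cancer cells only) was read by plate reader every 8 h for 72 h. Values are normalised to each well's pre-drug value. The stock of one drug was tenfold lower, so its dose labels may be too high.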

C#Cc1cccc(Nc2ncnc3cc(OCCOC)c(OCCOC)cc23)c1 [Erlotinib]
relative JC-1 red fluorescence
Details | 8 h | 16 h | 24 h | 32 h | 40 h | 48 h | 56 h | 64 h | 72 h
0.1 µM, coculture fibroblast: C12385 | 0.899 | 0.828 | 0.772 | 0.6998 | 0.653 | 0.633 | 0.601 | 0.576 | 0.5649
0.1 µM, coculture fibroblast: H6013 | 0.8838 | 0.837 | 0.786 | 0.783 | 0.749 | 0.76 | 0.73 | 0.709 | 0.664
0.1 µM, coculture fibroblast: H6019 | 0.821 | 0.7833 | 0.7363 | 0.66 | 0.614 | 0.589 | 0.545 | 0.508 | 0.482
0.1 µM, coculture fibroblast: H6076 | 0.91 | 0.923 | 0.938 | 0.926 | 0.855 | 0.846 | 0.797 | 0.782 | 0.82
0.1 µM, coculture fibroblast: H6231 | 0.8513 | 0.973 | 0.882 | 0.835 | 0.78 | 0.756 | 0.702 | 0.668 | 0.6459
0.1 µM, coculture fibroblast: HADF | 0.896 | 0.843 | 0.782 | 0.767 | 0.712 | 0.699 | 0.662 | 0.651 | 0.623
0.1 µM, coculture fibroblast: HCFa | 0.878 | 0.833 | 0.778 | 0.753 | 0.689 | 0.678 | 0.627 | 0.593 | 0.549
0.1 µM, coculture fibroblast: HCPF | 0.883 | 0.966 | 0.902 | 0.862 | 0.801 | 0.765 | 0.711 | 0.699 | 0.682
0.1 µM, coculture fibroblast: HHSteC | 0.91305 | 0.859 | 0.8146 | 0.784 | 0.738 | 0.729 | 0.669 | 0.641 | 0.588
0.1 µM, coculture fibroblast: HMF | 0.8287 | 0.91 | 0.887 | 0.847 | 0.788 | 0.765 | 0.716 | 0.696 | 0.679
0.1 µM, coculture fibroblast: HPFa | 0.919 | 0.849 | 0.827 | 0.789 | 0.749 | 0.744 | 0.668 | 0.637 | 0.557
0.1 µM, coculture fibroblast: HUF | 0.908 | 0.845 | 0.8149 | 0.764 | 0.711 | 0.692 | 0.658 | 0.633 | 0.609
0.1 µM, coculture fibroblast: Hs5 | 0.7681 | 0.964 | 0.911 | 0.8807 | 0.811 | 0.7863 | 0.755 | 0.72 | 0.746
0.1 µM, coculture fibroblast: Hs27A | 0.882 | 0.838 | 0.786 | 0.787 | 0.713 | 0.701 | 0.66 | 0.628 | 0.593
0.1 µM, coculture fibroblast: Hs343T | 0.889 | 0.831 | 0.893 | 0.845 | 0.785 | 0.759 | 0.707 | 0.688 | 0.665
0.1 µM, coculture fibroblast: WS1 | 0.892 | 0.795 | 0.747 | 0.691 | 0.64 | 0.607 | 0.588 | 0.5642 | 0.561
1 µM, coculture fibroblast: C12385 | 0.885 | 0.845 | 0.8161 | 0.7427 | 0.697 | 0.68 | 0.641 | 0.617 | 0.598
1 µM, coculture fibroblast: H6013 | 0.865 | 0.868 | 0.827 | 0.827 | 0.829 | 0.841 | 0.826 | 0.815 | 0.767
1 µM, coculture fibroblast: H6019 | 0.822 | 0.8129 | 0.7867 | 0.737 | 0.704 | 0.692 | 0.646 | 0.609 | 0.584
1 µM, coculture fibroblast: H6076 | 0.887 | 0.8876 | 0.863 | 0.874 | 0.808 | 0.8194 | 0.8 | 0.793 | 0.829
1 µM, coculture fibroblast: H6231 | 0.84 | 0.862 | 0.828 | 0.837 | 0.773 | 0.768 | 0.725 | 0.704 | 0.714
1 µM, coculture fibroblast: HADF | 0.901 | 0.87941 | 0.82312 | 0.819 | 0.761 | 0.749 | 0.7168 | 0.7087 | 0.6803
1 µM, coculture fibroblast: HCFa | 0.8434 | 0.8424 | 0.80276 | 0.778 | 0.733 | 0.73 | 0.689 | 0.658 | 0.618
1 µM, coculture fibroblast: HCPF | 0.8487 | 0.93 | 0.863 | 0.863 | 0.8 | 0.775 | 0.73 | 0.723 | 0.7154
1 µM, coculture fibroblast: HHSteC | 0.8878 | 0.873 | 0.843 | 0.813 | 0.795 | 0.791 | 0.743 | 0.714 | 0.655
1 µM, coculture fibroblast: HMF | 0.834 | 0.907 | 0.87 | 0.847 | 0.794 | 0.779 | 0.75 | 0.743 | 0.73
1 µM, coculture fibroblast: HPFa | 0.9439 | 0.8935 | 0.8586 | 0.817 | 0.783 | 0.777 | 0.7055 | 0.6765 | 0.595
1 µM, coculture fibroblast: HUF | 0.8983 | 0.834 | 0.806 | 0.74 | 0.693 | 0.673 | 0.633 | 0.618 | 0.601
1 µM, coculture fibroblast: Hs5 | 0.963 | 0.94 | 0.893 | 0.862 | 0.808 | 0.78 | 0.764 | 0.7326 | 0.7482
1 µM, coculture fibroblast: Hs27A | 0.853 | 0.8625 | 0.791 | 0.793 | 0.74 | 0.733 | 0.691 | 0.672 | 0.6341
1 µM, coculture fibroblast: Hs343T | 0.841 | 0.905 | 0.8511 | 0.826 | 0.768 | 0.752 | 0.717 | 0.703 | 0.693
1 µM, coculture fibroblast: WS1 | 0.872 | 0.831 | 0.794 | 0.7358 | 0.681 | 0.658 | 0.631 | 0.605 | 0.591
